The other results are listed elsewhere or left out.
What was measured:
Test in all cases: log2 fold change, soluble protein after heating vs DMSO (PISA); higher = thermal stabilisation; K562 lysate, 10 uM; active = over 0.2 and 3.5 SD of the protein, either way, in both replicates (recomputed)
alvocidib = compound: CN1CC[C@H](c2c(O)cc(O)c3c(=O)cc(-c4ccccc4Cl)oc23)[C@H](O)C1 [alvocidib]
Method in brief: (§1)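 The values are log-two fold changes in thermal stability compared with solvent controls and come from duplicates. They were obtained by TMTpro 16plex LC-MS/MS, with channel sums equalised, on the supernatant after 21,000xg for 90 min. That supernatant came from crude K562 extract at 1 mg/mL protein treated with 10 μM compound for 30 min, heated for 3 min across 48°C-58°C, pooled and brought to 0.5% NP-40 at 4°C.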

Sequences of proteins named here, by UniProt entry; tags and fusion partners are left off. A change or cut given only in a name is not applied to a line headed by its entry.
UniProt Q53T59: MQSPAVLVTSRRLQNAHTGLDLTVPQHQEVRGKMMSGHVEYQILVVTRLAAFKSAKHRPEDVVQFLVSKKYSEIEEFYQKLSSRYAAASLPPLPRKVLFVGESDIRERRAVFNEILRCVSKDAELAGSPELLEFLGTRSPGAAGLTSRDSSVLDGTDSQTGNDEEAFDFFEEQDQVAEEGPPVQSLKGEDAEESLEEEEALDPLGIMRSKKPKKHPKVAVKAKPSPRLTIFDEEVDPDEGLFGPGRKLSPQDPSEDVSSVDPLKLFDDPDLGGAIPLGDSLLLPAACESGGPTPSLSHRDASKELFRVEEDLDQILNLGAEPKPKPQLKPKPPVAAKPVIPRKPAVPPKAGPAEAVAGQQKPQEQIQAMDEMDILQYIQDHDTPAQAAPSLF
UniProt Q1KMD3: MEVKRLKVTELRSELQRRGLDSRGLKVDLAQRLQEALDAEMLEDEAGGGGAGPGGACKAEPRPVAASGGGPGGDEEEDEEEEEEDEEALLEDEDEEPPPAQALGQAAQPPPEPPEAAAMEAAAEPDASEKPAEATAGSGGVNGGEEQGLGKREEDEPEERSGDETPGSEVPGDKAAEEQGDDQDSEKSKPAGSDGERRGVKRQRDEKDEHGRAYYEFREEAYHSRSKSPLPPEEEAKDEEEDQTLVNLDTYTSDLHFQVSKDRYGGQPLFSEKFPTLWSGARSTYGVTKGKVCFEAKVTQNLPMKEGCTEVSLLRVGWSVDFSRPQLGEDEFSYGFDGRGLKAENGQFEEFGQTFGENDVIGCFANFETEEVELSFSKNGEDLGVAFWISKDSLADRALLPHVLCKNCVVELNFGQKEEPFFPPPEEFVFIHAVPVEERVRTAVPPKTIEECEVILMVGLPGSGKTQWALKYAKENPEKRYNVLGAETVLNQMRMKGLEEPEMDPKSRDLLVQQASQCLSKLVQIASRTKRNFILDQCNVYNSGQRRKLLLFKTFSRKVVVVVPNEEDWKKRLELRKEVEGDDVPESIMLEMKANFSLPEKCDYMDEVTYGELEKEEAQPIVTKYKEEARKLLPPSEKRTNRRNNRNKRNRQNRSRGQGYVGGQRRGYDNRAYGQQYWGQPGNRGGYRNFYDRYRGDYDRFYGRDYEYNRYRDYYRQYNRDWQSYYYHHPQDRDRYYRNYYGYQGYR
UniProt Q8WVV9: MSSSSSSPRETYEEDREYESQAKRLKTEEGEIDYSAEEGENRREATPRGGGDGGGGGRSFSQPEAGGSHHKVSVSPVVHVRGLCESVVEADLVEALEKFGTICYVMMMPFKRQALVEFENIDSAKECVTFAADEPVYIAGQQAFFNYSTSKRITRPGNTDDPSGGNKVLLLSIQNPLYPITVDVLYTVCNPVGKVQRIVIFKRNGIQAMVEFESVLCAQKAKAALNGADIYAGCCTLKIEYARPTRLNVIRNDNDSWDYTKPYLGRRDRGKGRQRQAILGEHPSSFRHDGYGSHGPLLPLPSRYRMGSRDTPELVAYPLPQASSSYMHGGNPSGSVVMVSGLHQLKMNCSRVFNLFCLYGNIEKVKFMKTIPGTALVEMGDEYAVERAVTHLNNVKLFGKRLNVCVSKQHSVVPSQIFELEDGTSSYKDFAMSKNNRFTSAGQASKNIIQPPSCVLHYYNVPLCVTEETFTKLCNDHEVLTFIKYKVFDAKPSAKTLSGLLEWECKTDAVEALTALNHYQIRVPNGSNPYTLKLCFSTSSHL
UniProt Q9BX68: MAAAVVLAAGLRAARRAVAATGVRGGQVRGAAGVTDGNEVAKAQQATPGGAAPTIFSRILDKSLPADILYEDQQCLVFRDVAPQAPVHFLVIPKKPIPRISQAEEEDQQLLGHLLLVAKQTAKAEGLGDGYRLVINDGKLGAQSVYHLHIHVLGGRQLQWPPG
UniProt P11021: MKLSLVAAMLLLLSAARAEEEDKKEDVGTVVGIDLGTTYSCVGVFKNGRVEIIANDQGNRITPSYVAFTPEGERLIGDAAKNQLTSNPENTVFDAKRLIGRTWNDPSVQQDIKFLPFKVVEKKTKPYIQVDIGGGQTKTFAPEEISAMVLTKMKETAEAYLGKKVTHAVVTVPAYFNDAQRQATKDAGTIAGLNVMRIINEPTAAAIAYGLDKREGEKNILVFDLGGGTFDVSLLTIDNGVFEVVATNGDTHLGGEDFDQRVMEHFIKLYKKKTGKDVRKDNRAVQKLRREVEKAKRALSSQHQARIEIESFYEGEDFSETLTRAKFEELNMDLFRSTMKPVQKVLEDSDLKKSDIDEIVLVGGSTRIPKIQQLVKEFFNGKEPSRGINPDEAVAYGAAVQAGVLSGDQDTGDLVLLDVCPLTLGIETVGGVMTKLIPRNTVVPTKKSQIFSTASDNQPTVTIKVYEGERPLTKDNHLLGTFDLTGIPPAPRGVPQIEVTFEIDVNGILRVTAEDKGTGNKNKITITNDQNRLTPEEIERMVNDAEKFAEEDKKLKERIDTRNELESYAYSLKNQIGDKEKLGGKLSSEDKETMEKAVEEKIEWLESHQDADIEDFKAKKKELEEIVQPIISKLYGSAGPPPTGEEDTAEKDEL
UniProt P34931, whole entry, looked up: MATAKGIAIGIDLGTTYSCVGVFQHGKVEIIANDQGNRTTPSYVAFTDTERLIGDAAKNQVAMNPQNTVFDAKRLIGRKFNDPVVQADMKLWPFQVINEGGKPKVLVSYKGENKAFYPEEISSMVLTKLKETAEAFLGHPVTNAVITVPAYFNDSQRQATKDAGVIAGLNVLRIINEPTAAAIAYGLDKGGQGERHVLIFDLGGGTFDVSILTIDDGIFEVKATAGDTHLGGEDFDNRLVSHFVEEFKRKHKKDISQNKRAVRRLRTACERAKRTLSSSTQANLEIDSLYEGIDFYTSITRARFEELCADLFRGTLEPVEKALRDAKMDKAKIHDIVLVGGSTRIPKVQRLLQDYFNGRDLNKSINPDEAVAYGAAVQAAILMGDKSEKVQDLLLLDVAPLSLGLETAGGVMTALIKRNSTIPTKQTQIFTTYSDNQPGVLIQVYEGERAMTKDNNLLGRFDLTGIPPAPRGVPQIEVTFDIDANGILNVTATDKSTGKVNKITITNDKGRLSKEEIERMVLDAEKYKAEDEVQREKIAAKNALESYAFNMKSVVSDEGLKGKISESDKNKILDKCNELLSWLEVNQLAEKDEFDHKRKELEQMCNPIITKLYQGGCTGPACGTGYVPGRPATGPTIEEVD
UniProt O75146: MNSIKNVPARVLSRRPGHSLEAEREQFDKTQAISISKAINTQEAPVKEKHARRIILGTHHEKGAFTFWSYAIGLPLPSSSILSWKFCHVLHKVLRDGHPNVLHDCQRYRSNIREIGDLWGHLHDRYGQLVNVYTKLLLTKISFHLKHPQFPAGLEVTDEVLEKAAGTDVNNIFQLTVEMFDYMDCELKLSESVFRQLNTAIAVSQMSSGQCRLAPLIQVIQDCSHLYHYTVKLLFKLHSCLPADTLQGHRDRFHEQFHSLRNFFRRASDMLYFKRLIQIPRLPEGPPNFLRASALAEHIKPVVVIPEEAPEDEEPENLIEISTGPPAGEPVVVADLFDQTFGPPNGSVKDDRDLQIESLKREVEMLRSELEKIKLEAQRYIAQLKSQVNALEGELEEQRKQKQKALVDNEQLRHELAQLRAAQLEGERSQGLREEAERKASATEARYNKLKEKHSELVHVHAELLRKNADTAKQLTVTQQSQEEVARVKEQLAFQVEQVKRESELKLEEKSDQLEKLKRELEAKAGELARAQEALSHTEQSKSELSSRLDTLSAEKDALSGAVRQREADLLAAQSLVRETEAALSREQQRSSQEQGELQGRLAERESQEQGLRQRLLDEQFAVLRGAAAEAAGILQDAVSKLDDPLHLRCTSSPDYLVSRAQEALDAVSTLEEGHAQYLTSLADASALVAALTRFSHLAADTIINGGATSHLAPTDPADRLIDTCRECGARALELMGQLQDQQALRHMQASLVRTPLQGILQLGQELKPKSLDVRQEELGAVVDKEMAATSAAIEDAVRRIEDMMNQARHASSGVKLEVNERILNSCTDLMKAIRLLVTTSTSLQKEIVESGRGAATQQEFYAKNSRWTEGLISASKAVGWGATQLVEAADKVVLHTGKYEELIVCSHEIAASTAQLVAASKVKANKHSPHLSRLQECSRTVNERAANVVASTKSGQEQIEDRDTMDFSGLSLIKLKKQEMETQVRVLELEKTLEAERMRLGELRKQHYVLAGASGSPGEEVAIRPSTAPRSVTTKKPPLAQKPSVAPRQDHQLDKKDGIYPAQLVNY
UniProt P26583: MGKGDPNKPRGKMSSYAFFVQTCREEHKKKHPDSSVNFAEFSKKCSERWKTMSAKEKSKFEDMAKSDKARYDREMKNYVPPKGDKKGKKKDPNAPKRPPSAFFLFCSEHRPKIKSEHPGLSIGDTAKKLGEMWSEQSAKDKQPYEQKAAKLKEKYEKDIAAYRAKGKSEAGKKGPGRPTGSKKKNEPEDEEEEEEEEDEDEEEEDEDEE
UniProt P34932: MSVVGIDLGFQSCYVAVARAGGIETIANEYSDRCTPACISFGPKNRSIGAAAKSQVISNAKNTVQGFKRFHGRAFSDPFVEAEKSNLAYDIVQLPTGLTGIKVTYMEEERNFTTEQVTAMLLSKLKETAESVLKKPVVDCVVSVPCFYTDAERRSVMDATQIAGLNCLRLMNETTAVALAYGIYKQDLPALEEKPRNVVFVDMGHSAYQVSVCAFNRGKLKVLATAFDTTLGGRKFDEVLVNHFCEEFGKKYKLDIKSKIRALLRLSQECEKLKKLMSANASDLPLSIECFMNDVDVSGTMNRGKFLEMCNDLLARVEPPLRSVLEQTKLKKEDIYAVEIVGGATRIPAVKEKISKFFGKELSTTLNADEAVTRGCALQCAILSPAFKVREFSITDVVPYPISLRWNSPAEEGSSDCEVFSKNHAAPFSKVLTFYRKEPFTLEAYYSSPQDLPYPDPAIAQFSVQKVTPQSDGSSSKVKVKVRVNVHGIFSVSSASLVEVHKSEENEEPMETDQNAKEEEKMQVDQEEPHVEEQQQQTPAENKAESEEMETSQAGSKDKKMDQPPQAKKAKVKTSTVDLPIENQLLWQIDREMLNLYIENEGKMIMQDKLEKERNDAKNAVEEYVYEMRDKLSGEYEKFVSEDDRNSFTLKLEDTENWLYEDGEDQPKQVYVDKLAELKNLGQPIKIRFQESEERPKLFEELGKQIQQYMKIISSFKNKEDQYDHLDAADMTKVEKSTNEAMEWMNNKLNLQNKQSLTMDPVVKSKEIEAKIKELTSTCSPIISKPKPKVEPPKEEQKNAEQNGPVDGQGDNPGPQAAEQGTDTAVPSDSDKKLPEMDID
UniProt Q96JB3: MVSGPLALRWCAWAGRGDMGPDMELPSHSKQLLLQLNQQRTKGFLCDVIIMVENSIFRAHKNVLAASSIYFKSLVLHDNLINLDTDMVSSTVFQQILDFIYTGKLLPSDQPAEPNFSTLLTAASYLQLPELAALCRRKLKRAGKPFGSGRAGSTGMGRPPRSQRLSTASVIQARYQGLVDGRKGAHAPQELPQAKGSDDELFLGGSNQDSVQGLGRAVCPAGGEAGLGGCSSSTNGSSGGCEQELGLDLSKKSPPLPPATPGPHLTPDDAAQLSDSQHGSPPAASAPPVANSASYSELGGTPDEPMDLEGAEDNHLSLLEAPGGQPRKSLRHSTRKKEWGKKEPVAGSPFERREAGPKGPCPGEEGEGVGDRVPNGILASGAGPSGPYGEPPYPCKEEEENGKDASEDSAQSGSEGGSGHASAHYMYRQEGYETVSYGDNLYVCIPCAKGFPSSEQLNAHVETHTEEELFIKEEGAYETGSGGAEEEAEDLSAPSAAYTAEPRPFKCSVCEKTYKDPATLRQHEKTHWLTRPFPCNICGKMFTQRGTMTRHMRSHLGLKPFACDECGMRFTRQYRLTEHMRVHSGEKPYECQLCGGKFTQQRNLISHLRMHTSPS
UniProt P17096: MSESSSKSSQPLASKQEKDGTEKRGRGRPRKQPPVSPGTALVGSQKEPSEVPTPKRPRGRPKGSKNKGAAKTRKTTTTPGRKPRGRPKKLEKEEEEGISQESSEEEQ
UniProt Q58FF7, whole entry, looked up: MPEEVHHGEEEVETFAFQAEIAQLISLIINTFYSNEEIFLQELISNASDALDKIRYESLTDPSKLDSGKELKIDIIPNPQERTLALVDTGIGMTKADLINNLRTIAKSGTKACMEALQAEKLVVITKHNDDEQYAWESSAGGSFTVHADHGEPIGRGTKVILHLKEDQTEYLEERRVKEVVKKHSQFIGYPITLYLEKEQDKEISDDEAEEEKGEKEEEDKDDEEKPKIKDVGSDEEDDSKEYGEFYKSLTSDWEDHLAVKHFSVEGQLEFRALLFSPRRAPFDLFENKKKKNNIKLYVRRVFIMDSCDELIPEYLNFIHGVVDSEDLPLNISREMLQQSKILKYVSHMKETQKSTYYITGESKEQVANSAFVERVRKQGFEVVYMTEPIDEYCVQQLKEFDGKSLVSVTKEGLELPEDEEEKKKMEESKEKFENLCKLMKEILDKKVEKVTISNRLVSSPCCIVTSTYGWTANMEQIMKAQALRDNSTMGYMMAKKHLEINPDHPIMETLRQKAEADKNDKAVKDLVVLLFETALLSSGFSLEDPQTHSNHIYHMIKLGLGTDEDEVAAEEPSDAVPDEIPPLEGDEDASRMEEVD

Tubastatin A = compound: CN1CCc2c(c3ccccc3n2Cc2ccc(C(=O)NO)cc2)C1 [Tubastatin A]
Method in brief: as §1

[1] = compound: CNC(=O)C1=CC=CC=C1NC2=NC(=NC=C2Cl)NC3=C(C=C(C=C3)N4CCOCC4)OC
Method in brief: as §1

defactinib = compound: CNC(=O)c1ccc(Nc2ncc(C(F)(F)F)c(NCc3nccnc3N(C)S(C)(=O)=O)n2)cc1 [defactinib]
Method in brief: as §1

[2] = compound: CNc1nc(-c2ccc3c(N)n[nH]c3c2)cc(N2C[C@@H](C(=O)NC3CCCCC3)CC[C@H]2C)n1
Method in brief: as §1

encorafenib = compound: COC(=O)N[C@@H](C)CNc1nccc(-c2cn(C(C)C)nc2-c2cc(Cl)cc(NS(C)(=O)=O)c2F)n1 [encorafenib]
Method in brief: as §1

[3] = compound: COC(=O)[C@H](CCSC)NC(=O)C1=C(C=C(C=C1)NC[C@H](CS)N)C2=CC=CC=C2
Method in brief: as §1

alisertib = compound: COc1cc(Nc2ncc3c(n2)-c2ccc(Cl)cc2C(c2c(F)cccc2OC)=NC3)ccc1C(=O)O [alisertib]
Method in brief: as §1

[4] = compound: COc1cc2nc(-c3cc(F)ccc3O)nc(N[C@@H]3CNC[C@H]3C(C)(C)O)c2cc1OC
Method in brief: as §1

gefitinib = compound: COc1cc2ncnc(Nc3ccc(F)c(Cl)c3)c2cc1OCCCN1CCOCC1 [gefitinib]
Method in brief: as §1

Measured: log2 fold change

HS1BP3 (UniProt Q53T59)
inactive: alvocidib -0.054 | Tubastatin A 0.034 | [1] -0.015 | defactinib -0.016 | [2] -0.052 | encorafenib 0.009 | [3] -0.088 | alisertib -0.021 | [4] 0.021 | gefitinib -0.031

HNRNPUL2 (UniProt Q1KMD3)
inactive: alvocidib -0.001 | Tubastatin A 0.007 | [1] 0.004 | defactinib 0.002 | [2] -0.009 | encorafenib -0.023 | [3] 0.105 | alisertib 0.009 | [4] 0.019 | gefitinib -0.023

HERC1 (UniProt Q15751)
inactive: alvocidib -0.004 | Tubastatin A -0.059 | [1] 0.003 | defactinib 0.002 | [2] -0.015 | encorafenib 0.025 | [3] 0.013 | alisertib -0.014 | [4] 0.021 | gefitinib -0.005

HIBADH (UniProt P31937)
inactive: alvocidib 0.041 | Tubastatin A 0.019 | [1] -0.001 | defactinib 0.02 | [2] 0.016 | encorafenib -0.019 | [3] -0.045 | alisertib 0.007 | [4] -0.014 | gefitinib -0.041

HNRNPA2B1 (UniProt P22626)
inactive: alvocidib -0.022 | Tubastatin A -0.004 | [1] -0.026 | defactinib -0.016 | [2] -0.011 | encorafenib 0.002 | [3] -0.027 | alisertib 0.016 | [4] -0.002 | gefitinib -0.01

HNRNPLL (UniProt Q8WVV9)
inactive: alvocidib 0.015 | Tubastatin A -0.164 | [1] 0.021 | defactinib 0.035 | [2] -0.016 | encorafenib 0.082 | [3] -0.07 | alisertib -0.016 | [4] 0.011 | gefitinib -0.052

HSP90AB1 (UniProt P08238)
inactive: alvocidib 0.054 | Tubastatin A 0.028 | [1] -0.001 | defactinib 0.015 | [2] -0.002 | encorafenib -0.013 | [3] 0.011 | alisertib -0.009 | [4] -0.005 | gefitinib -0.03

HMG20B (UniProt Q9P0W2)
inactive: alvocidib -0.035 | Tubastatin A -0.103 | [1] -0.025 | defactinib 0 | [2] 0 | encorafenib 0 | [3] 0.039 | alisertib 0.043 | [4] 0.011 | gefitinib 0.001

HINT2 (UniProt Q9BX68)
inactive: alvocidib 0.069 | Tubastatin A 0.036 | [1] 0.064 | defactinib 0.203 | [2] 0.02 | encorafenib 0.061 | [3] 0.014 | alisertib 0.057 | [4] -0.051 | gefitinib -0.115

HSDL2 (UniProt Q6YN16)
inactive: alvocidib -0.006 | Tubastatin A 0.052 | [1] -0.025 | defactinib 0.03 | [2] 0.038 | encorafenib -0.022 | [3] 0.03 | alisertib 0.011 | [4] -0.017 | gefitinib -0.015

HMGCS1 (UniProt Q01581)
inactive: alvocidib 0.021 | Tubastatin A -0.073 | [1] 0.004 | defactinib -0.011 | [2] 0.006 | encorafenib -0.021 | [3] 0.078 | alisertib 0.012 | [4] -0.002 | gefitinib 0.013

HSPA5 (UniProt P11021)
inactive: alvocidib 0.007 | Tubastatin A 0.05 | [1] -0.033 | defactinib -0.003 | [2] -0.056 | encorafenib 0.022 | [3] -0.015 | alisertib 0.012 | [4] -0.012 | gefitinib -0.002

HSPA1L (UniProt P34931)
inactive: alvocidib -0.004 | Tubastatin A 0.151 | [1] -0.03 | defactinib -0.022 | [2] 0.019 | encorafenib 0.002 | [3] -0.008 | alisertib 0.031 | [4] -0.023 | gefitinib 0.058

HMGN5 (UniProt P82970)
inactive: alvocidib 0.04 | Tubastatin A 0.045 | [1] -0.029 | defactinib 0.051 | [2] 0.018 | encorafenib -0.029 | [3] -0.023 | alisertib -0.036 | [4] 0.006 | gefitinib -0.028

HIP1R (UniProt O75146)
inactive: alvocidib 0.023 | Tubastatin A -0.016 | [1] 0.014 | defactinib -0.006 | [2] 0.004 | encorafenib 0.012 | [3] 0.008 | alisertib -0.005 | [4] 0.008 | gefitinib 0.007

HNRNPD isoform 2 (UniProt Q14103)
inactive: alvocidib 0.142 | Tubastatin A 0.108 | [1] 0.001 | defactinib -0.043 | [2] 0.065 | encorafenib -0.032 | [3] -0.008 | alisertib 0.018 | [4] -0.008 | gefitinib 0

Quoted at random: 2 records from the list.
HIP1R (UniProt O75146)
inactive: alvocidib 0.023 | Tubastatin A -0.016 | [1] 0.014 | defactinib -0.006 | [2] 0.004 | encorafenib 0.012 | [3] 0.008 | alisertib -0.005 | [4] 0.008 | gefitinib 0.007

HSPA5 (UniProt P11021)
inactive: alvocidib 0.007 | Tubastatin A 0.05 | [1] -0.033 | defactinib -0.003 | [2] -0.056 | encorafenib 0.022 | [3] -0.015 | alisertib 0.012 | [4] -0.012 | gefitinib -0.002

Going on with the list:

HSD17B12 (UniProt Q53GQ0)
inactive: alvocidib 0.012 | Tubastatin A -0.089 | [1] -0.11 | defactinib -0.021 | [2] -0.046 | encorafenib -0.016 | [3] 0.035 | alisertib 0.022 | [4] 0.009 | gefitinib -0.131

HEXB (UniProt P07686)
inactive: alvocidib 0.013 | Tubastatin A -0.003 | [1] -0.02 | defactinib -0.005 | [2] -0.026 | encorafenib -0.003 | [3] 0.006 | alisertib 0.021 | [4] -0.004 | gefitinib -0.033

HMGB2 (UniProt P26583)
inactive: alvocidib 0.134 | Tubastatin A 0.027 | [1] 0.023 | defactinib 0.003 | [2] 0.016 | encorafenib -0.006 | [3] -0.081 | alisertib -0.044 | [4] -0.022 | gefitinib -0.028

HNRNPK isoform 3 (UniProt P61978)
inactive: alvocidib 0.081 | Tubastatin A -0.001 | [1] 0.014 | defactinib -0.043 | [2] 0.053 | encorafenib 0.03 | [3] -0.069 | alisertib -0.021 | [4] 0.017 | gefitinib -0.001

HSPA4 (UniProt P34932)
inactive: alvocidib 0 | Tubastatin A 0.016 | [1] -0.018 | defactinib -0.006 | [2] -0.035 | encorafenib -0.025 | [3] 0.033 | alisertib 0.001 | [4] -0.006 | gefitinib -0.008

HIST2H2BF isoform 2 (UniProt Q5QNW6)
inactive: alvocidib -0.001 | Tubastatin A 0.019 | [1] -0.014 | defactinib -0.033 | [2] 0.164 | encorafenib -0.026 | [3] 0.103 | alisertib 0.015 | [4] -0.003 | gefitinib -0.03

HIC2 (UniProt Q96JB3)
inactive: alvocidib -0.051 | Tubastatin A -0.026 | [1] 0.035 | defactinib -0.027 | [2] -0.032 | encorafenib 0.028 | [3] -0.048 | alisertib 0.037 | [4] 0.001 | gefitinib -0.044

HNRNPR isoform 2 (UniProt O43390)
inactive: alvocidib 0.011 | Tubastatin A -0.057 | [1] 0.012 | defactinib -0.013 | [2] -0.012 | encorafenib -0.025 | [3] 0.03 | alisertib 0.006 | [4] -0.013 | gefitinib -0.039

HMGA1 (UniProt P17096)
inactive: alvocidib -0.108 | Tubastatin A 0.066 | [1] -0.001 | defactinib -0.007 | [2] 0.023 | encorafenib -0.005 | [3] -0.018 | alisertib 0.046 | [4] 0.011 | gefitinib -0.027

HIST2H3A (UniProt Q71DI3)
inactive: alvocidib -0.041 | Tubastatin A 0.027 | [1] -0.031 | defactinib 0.002 | [2] 0.234 | encorafenib 0.023 | [3] 0.071 | alisertib -0.004 | [4] -0.004 | gefitinib 0.005

HMGN4 (UniProt O00479)
inactive: alvocidib 0.581 | Tubastatin A -0.001 | [1] 0.01 | defactinib 0.122 | [2] 0.235 | encorafenib -0.072 | [3] -0.046 | alisertib -0.074 | [4] -0.036 | gefitinib 0.111

HSP90AB3P (UniProt Q58FF7)
inactive: alvocidib 0.096 | Tubastatin A -0.024 | [1] -0.041 | defactinib -0.011 | [2] -0.055 | encorafenib 0.03 | [3] 0.038 | alisertib -0.014 | [4] -0.022 | gefitinib -0.092

HMCES (UniProt Q96FZ2)
inactive: alvocidib -0.034 | Tubastatin A -0.153 | [1] 0.062 | defactinib -0.008 | [2] 0.032 | encorafenib -0.014 | [3] 0.064 | alisertib 0.03 | [4] -0.005 | gefitinib -0.07
